Measurements from patent publication US6939534B2, “Method to treat pulmonary hypoplasia in the newborn” (GenoMed, LLC, priority 2001, dated 2005).

Experiment: Radioreceptor assay (RRA) of EGF receptor-reactive material in acidified, heated amniotic fluid
Conditions: human amniotic fluid

epidermal growth factor [EGF]
EGF (by RRA; mean ± SEM) (21-25 weeks gestation, acidified and heated): 4.06 ± 2.43 ng/mL | EGF (by RRA; mean ± SEM) (26-30 weeks gestation, acidified and heated): 6.68 ± 2.09 ng/mL | EGF (by RRA; mean ± SEM) (31-35 weeks gestation, acidified and heated): 12.62 ± 3.69 ng/mL | EGF (by RRA; mean ± SEM) (36-40 weeks gestation, acidified and heated): 4.25 ± 0.49 ng/mL | EGF (by RRA; mean ± SEM) (<16 weeks gestation, acidified pH 1-2 and heated 100° C. 5 min): 6.5 ± 1.33 ng/mL
